The results in this text go back to PubChem BioAssay AID652134 (The Scripps Research Institute Molecular Screening Center, 2013).

Sequences of proteins named here, by UniProt entry; tags and fusion partners are left off. A change or cut given only in a name is not applied to a line headed by its entry.
UniProt P51843: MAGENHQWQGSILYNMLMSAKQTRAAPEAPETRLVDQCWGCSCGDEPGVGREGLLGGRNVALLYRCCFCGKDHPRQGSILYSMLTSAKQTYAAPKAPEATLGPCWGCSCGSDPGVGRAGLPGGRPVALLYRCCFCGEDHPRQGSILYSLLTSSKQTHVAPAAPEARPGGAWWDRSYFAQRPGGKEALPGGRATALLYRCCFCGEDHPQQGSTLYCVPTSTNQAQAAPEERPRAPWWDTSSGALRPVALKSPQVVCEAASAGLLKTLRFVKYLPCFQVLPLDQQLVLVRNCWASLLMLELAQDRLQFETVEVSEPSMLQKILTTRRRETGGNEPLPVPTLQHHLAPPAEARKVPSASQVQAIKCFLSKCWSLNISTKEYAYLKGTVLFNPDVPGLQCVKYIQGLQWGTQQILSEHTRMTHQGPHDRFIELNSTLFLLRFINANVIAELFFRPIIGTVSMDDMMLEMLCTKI

The list shows a part of the results, in another mix than the full data. Activity calls are given as the source filed them.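 Rule for the calls: active = inhibition above the average of every tested compound plus 3 SD (cut at about 3.8% in these data); inactive = the rest.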

The target in the assay is Nuclear receptor subfamily 0 group B member 1 (Homo sapiens) (UniProt P51843). In words: NR0B1 repressor blockers, StAR reporter readout – cell-based, luminescence, HEK293T, full-length DAX-1, SF-1 activated StAR promoter, confirmation (AID 652134).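 Note: 0% = DAX-1 cells with DMSO and 100% = no DAX-1 control cells with DMSO; active compounds raise luminescence by relieving repression of the StAR reporter.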 Conditions: HEK293T StAR-promoter luciferase reporter, SF-1/DAX-1 repression; at 6.8 µM; active compounds read high.
Regarding `CCOC(=O)NC1CCc2cc(OC)c(OC)c(OC)c2-c2ccc(OC)c(=O)cc21` (configuration not stated), the inhibition was active: 16.2%.
In the case of `O=C(C=Cc1ccccc1)Nc1ccccc1` it was active: 12.3%.
